Source: patent US20240368668A1, “SUBSTRATES AND BIOMARKERS OF ADAMTS7” (The Broad Institute, Inc., priority 2021, published 2024)

Key:
mouse ADAMTS7 [1] = test: TMT10 TAILS N-terminomics, SMC2 experiment (process replicates, trypsin/AspN digest); assay type: cell-based; settings: for SMC2 TAILS.total Intensity: SMC2 experiment, total intensity of the N-terminal (TAILS) peptide
In short: (§1)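 Full-length mouse ADAMTS7 (WT or E373Q mutant, C-terminal 3xFLAG) or luciferase was transduced via adenovirus, 50 MOI, into HCA-SMC (SMC1, SMC2) or HUVEC. SMC1: pooled media, technical triplicates 400 ug; SMC2: process triplicates 300 ug; HUVEC: process triplicates 200 ug, bFGF2 10 ng/ml.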

mouse ADAMTS7 [2] = test: TMT10 TAILS N-terminomics, HUVEC experiment (process replicates, trypsin/AspN digest); assay type: cell-based, human; settings: for ATS7_HUVEC_TAILS_frxns_mATS7inDB_AspGluN.total Intensity: HUVEC TAILS experiment, total MS intensity of the N-terminal (neo-N-terminal) peptide identified by TAILS_id; for HUVEC TAILS.total Intensity: HUVEC experiment, total intensity of the N-terminal (TAILS) peptide
Source text: ADAMTS7 Expression, Cell Culture and Preparation of the Secreted Proteins—Full-length mouse Adamts7 1-1857 (Uniprot Q68SA9, WT or E373Q catalytic mutant) with a carboxyl terminal 3xFLAG tag was used to generate custom adenoviruses as previously described. Adeno-CMV-Luciferase (Ad-Luc) from Vector Biolabs was used as a negative control. Human Coronary Artery Smooth Muscle Cells (HCA-SMC) were obtained from Lonza and expanded in Lonza SmGM-2 media in 15 cm tissue culture plates. Twenty-four hours before media collection, near confluent plates were transduced with 50 MOI adenovirus and switched to Lonza Basal SM media with volumes of 20 ml per 15 cm plate. Expression of the Flag tagged ADAMTS7 was confirmed from the media using western blot and detected using the anti-Flag M2-HRP antibody (Sigma, A8592). Collected media was processed by adding protease inhibitors (1 mM EDTA and 1 mM PMSF) and clarified by 500 g×5 min spin at 4 C to pellet cell debris. Cell media supernatants were then passed through a 0.22 um filter and kept chilled. Processed media was then concentrated 50-100× using 3 kDa Centricon Plus-70 filter unit, spun at 3,500 g×60 min at 4 C. Approximately 10% of the processed, concentrated media was set aside for total secretome proteolytic analysis. The remaining 90% of the processed, concentrated media was buffer exchanged into 50 mM HEPES pH 8.0, 150 mM NaCl (2×50 ml) using the 3 kDa Centricon Plus-70 filter unit and concentrated to >2 mg/ml to serve as input for the TAILS experiment. Secretome and TAILS input samples were stored at −80° C.
For the first experiment, referred to as SMC1, 120 ml of media from 6×15 cm dishes was pooled from each condition (Luc, WT, EQ) and processed to produce three separate inputs for the TAILS experiment. Luc, WT and EQ inputs from the SMC1 experiment were each divided into triplicate 400 ug samples to generate technical replicate TAILS data. For the second experiment, referred to as SMC2, media was processed separately in triplicate for each condition (Luc1, Luc2, Luc3, WT1, WT2, WT3, EQ1, EQ2, EQ3) using 60 ml of media from 3×15 cm dishes for each process replicate. Inputs from the SMC2 experiment used process replicates of 300 ug each to generate TAILS data. The third experiment used input from cultured Human umbilical vein endothelial cells (HUVEC) from Lifeline Cell Technology grown in VascuLife Media and transduced in Lifeline Basal EC (+bFGF2 10 ng/ml). The HUVEC experiment used the same strategy as the SMC2 experiment, with 40 ml of media from 2×15 cm dishes for each process replicate and used 200 ug each to generate TAILS data. Inputs for process replicate experiments were restricted to the lowest concentration from the 9 parallel samples for SMC2 or HUVEC.
TMT10 isotopic labeling and negative selection of non-labeled peptides-Sample preparation was performed based on the TAILS protocol from the Overall lab with some modifications. From a single experiment, nine parallel protein samples in 50 mM HEPES pH 8.0, 150 mM NaCl were separately denatured with guanidinium chloride (Sigma, G4505) to reach a final concentration of 2.5M guanidinium chloride and 250 mM HEPES and incubated at 65° C. for 15 min. Reduction was achieved through addition of tris(2-carboxylethyl) phosphine (TCEP) at a final concentration of […] and incubated at 65° C. for 45 min. Alkylation reaction was performed with addition of iodoacetamide (IAA, Sigma, A3221) to a final concentration of 10 mM IAA for 15 min at room temperature in the dark. Following denaturation, reduction and alkylation steps, ten percent of each of the nine parallel protein samples was removed and combined to serve as a pooled reference. Isobaric tags were added to free amine groups using the TMT10plex Isobaric Mass Tagging Kit (ThermoFisher, 90113) with TMT channels randomly assigned to the nine samples and TMT 131 assigned to the pooled reference. […]

mouse ADAMTS7 [3] = test: TMT10 TAILS N-terminomics, SMC1 experiment (Ad-mADAMTS7 WT vs EQ vs Luc, technical replicates, trypsin digest); assay type: cell-based; settings: for SMC1 TAILS.total Intensity: TAILS HC Overlap, total intensity of the peptide
In short: as §1

[4] = total intensity of the N-terminal peptide spectra, SMC rd2 TAILS fractions, AspN/GluC search
[5] = SMC rd2 TAILS, AspGluN search, total spectral intensity of the N-terminal peptide (TAILS_id = gene_StartAA cleavage site)
[6] = TAILS N-terminal peptide identified in SMC conditioned media (scale-up, fractions), mouse ADAMTS7, value listed per TAILS_id (protein_StartAA)

Row | Substance | SMC2 TAILS.total Intensity (mouse ADAMTS7 [1]) | ATS7_HUVEC_TAILS_frxns_mATS7inDB_AspGluN.total Intensity (mouse ADAMTS7 [2]) | HUVEC TAILS.total Intensity (mouse ADAMTS7 [2]) | other results
1 | ECM1_108 (QEAVPLQK; listed as Homo sapiens) | 2.41E+09 | 1.47E+08 | 1.47E+08 | ATS7_SMC_rd2_TAILS_frxns_matS7inDB_AspGluN_retry.totalIntensity (mouse ADAMTS7 [1]; [4]): 2.41E+09
2 | FN1_35 (QMVQPQSPVAVSQSKPGCY; listed as Homo sapiens) | 2.65E+10 | 2.07E+10 | 2.07E+10 | ATS7_SMC_rd2_TAILS_frxns_matS7inDB_AspGluN_retry.totalIntensity (mouse ADAMTS7 [1]; [4]): 2.65E+10
3 | FN1_607 (SSSGPVEVFIT; listed as Homo sapiens) | 1.24E+11 | 4.88E+09 | 8.05E+09 | ATS7_SMC_rd2_TAILS_frxns_matS7inDB_AspGluN_retry.totalIntensity (mouse ADAMTS7 [1]; [4]): 1.24E+11
4 | FN1_1624 (LVQTAVTTIPAPT; listed as Homo sapiens) | – | 6.33E+09 | – | –
5 | FN1_1743 (WESPQGQVSR; listed as Homo sapiens) | – | 9.68E+08 | – | –
6 | FN1_1780 (LQGLRPGSEYTVSVVALH; listed as Homo sapiens) | 4.09E+09 | 2.82E+09 | 2.82E+09 | ATS7_SMC_rd2_TAILS_frxns_matS7inDB_AspGluN_retry.totalIntensity (mouse ADAMTS7 [1]; [4]): 4.09E+09
7 | FN1_1805 (LIGTQSTAIPAPT; listed as Homo sapiens) | 5.10E+10 | 4.74E+10 | 4.74E+10 | ATS7_SMC_rd2_TAILS_frxns_matS7inDB_AspGluN_retry.totalIntensity (mouse ADAMTS7 [1]; [4]): 5.10E+10
8 | FN1_2113 (FVTHPGY; listed as Homo sapiens) | 5.02E+09 | 2.71E+09 | 2.71E+09 | ATS7_SMC_rd2_TAILS_frxns_matS7inDB_AspGluN_retry.totalIntensity (mouse ADAMTS7 [1]; [4]): 5.02E+09
9 | FSTL1_290 (LQKHQETA; listed as Homo sapiens) | 5.17E+08 | 1.45E+08 | 1.45E+08 | ATS7_SMC_rd2_TAILS_frxns_matS7inDB_AspGluN_retry.totalIntensity (mouse ADAMTS7 [1]; [5]): 5.17E+08
10 | LOX_125 (FQAGYSTSR; listed as Homo sapiens) | 1.92E+10 | 1.50E+09 | 1.50E+09 | ATS7_SMC_rd2_TAILS_frxns_matS7inDB_AspGluN_retry.totalIntensity (mouse ADAMTS7 [1]; [5]): 1.92E+10
11 | LTBP2_79 (VAGLQPVER; listed as Homo sapiens) | 6.41E+07 | 9.87E+08 | 9.87E+08 | ATS7_SMC_rd2_TAILS_frxns_matS7inDB_AspGluN_retry.totalIntensity (mouse ADAMTS7 [1]; [5]): 6.41E+07
12 | LTBP2_129 (QQQPAPR; listed as Homo sapiens) | – | 4.46E+09 | – | –
13 | LTBP2_250 (SAAGEGTLAR; listed as Homo sapiens) | 1.86E+08 | 9.28E+08 | 9.28E+08 | ATS7_SMC_rd2_TAILS_frxns_matS7inDB_AspGluN_retry.totalIntensity (mouse ADAMTS7 [1]; [5]): 1.86E+08
14 | LTBP2_253 (GEGTLAR; listed as Homo sapiens) | – | 3.80E+10 | – | –
15 | LTBP2_502 (LVENSVETRPPPWLPASPGHSLW; listed as Homo sapiens) | 2.73E+08 | 3.30E+07 | 3.30E+07 | ATS7_SMC_rd2_TAILS_frxns_matS7inDB_AspGluN_retry.totalIntensity (mouse ADAMTS7 [1]; [5]): 2.73E+08
16 | LTBP3_164 (LSTGALPPLAPEG; listed as Homo sapiens) | – | 1.18E+08 | – | –
17 | LTBP3_205 (HAAFLVPLGPGQISA; listed as Homo sapiens) | – | 8.70E+07 | – | –

Row | Substance | SMC2 TAILS.total Intensity (mouse ADAMTS7 [1]) | ATS7_HUVEC_TAILS_frxns_mATS7inDB_AspGluN.total Intensity (mouse ADAMTS7 [2]) | HUVEC TAILS.total Intensity (mouse ADAMTS7 [2]) | other results
18 | LTBP3_208 (FLVPLGPGQISA; listed as Homo sapiens) | 1.77E+07 | 4.31E+07 | 4.31E+07 | ATS7_SMC_rd2_TAILS_frxns_matS7inDB_AspGluN_retry.totalIntensity (mouse ADAMTS7 [1]; [5]): 1.77E+07
19 | LTBP3_221 (VQAPPPVVNVR; listed as Homo sapiens) | – | 6.41E+08 | – | –
20 | MCFD2_55 (HLEGVINKPEA; listed as Homo sapiens) | – | 2.54E+08 | – | –
21 | MMP2_193 (HAFAPGTGVGG; listed as Homo sapiens) | – | 5.68E+08 | – | –
22 | NID1_360 (FHQQHPQVI; listed as Homo sapiens) | 7.78E+09 | 5.26E+08 | 5.26E+08 | ATS7_SMC_rd2_TAILS_frxns_matS7inDB_AspGluN_retry.totalIntensity (mouse ADAMTS7 [1]; [5]): 7.78E+09
23 | NUCB1_317 (FLASTQR; listed as Homo sapiens) | – | 1.67E+08 | 1.67E+08 | SMC1 TAILS.total Intensity (mouse ADAMTS7 [3]): 1.78E+08; TAILS_SMC_Scaleup_fxns_mATS7i (mouse ADAMTS7 [3]; [6]): 1.78E+08
24 | NUCB1_389 (LQQAVLHMEQR; listed as Homo sapiens) | – | 4.02E+08 | 4.02E+08 | SMC1 TAILS.total Intensity (mouse ADAMTS7 [3]): 1.01E+08; TAILS_SMC_Scaleup_fxns_mATS7i (mouse ADAMTS7 [3]; [6]): 1.01E+08
25 | PSAP_301 (LVEPIKKH; listed as Homo sapiens) | – | 8.06E+08 | – | –
26 | PTBP1_376 (AAAAAGR; listed as Homo sapiens) | – | 2.41E+09 | – | –
27 | PZP_578 (HAHLQVAAAPQSLCALR; listed as Homo sapiens) | – | 5.67E+07 | – | –
28 | SERBP1_56 (QAAAQTNSNAAGKQLR; listed as Homo sapiens) | – | 4.86E+07 | 4.86E+07 | SMC1 TAILS.total Intensity (mouse ADAMTS7 [3]): 9.32E+07; TAILS_SMC_Scaleup_fxns_mATS7i (mouse ADAMTS7 [3]; [6]): 9.32E+07
29 | SPOCK1_27 (LAGGAGPNHGNFL; listed as Homo sapiens) | 5.00E+08 | 1.92E+09 | 1.92E+09 | ATS7_SMC_rd2_TAILS_frxns_matS7inDB_AspGluN_retry.totalIntensity (mouse ADAMTS7 [1]; SMC rd2 TAILS, AspGluN digest, total MS intensity of the N-terminal peptide at the given StartAA): 5.00E+08
30 | THBS1_630 (FGQGVEHATANK; listed as Homo sapiens) | – | 4.11E+08 | – | –
31 | THBS2_290 (LSENLKR; listed as Homo sapiens) | – | 1.83E+08 | 1.83E+08 | SMC1 TAILS.total Intensity (mouse ADAMTS7 [3]): 4.15E+08; TAILS_SMC_Scaleup_fxns_mATS7i (mouse ADAMTS7 [3]; intensity of the N-terminal (TAILS) peptide in SMC scale-up TAILS experiment, fractions, peptide identified by TAILS_id (gene symbol_StartAA)): 4.15E+08
32 | UQCRH_76 (HGSPNNSERAMRAVGEMCKGPGAAR; oxidized methionine; listed as Homo sapiens) | – | 3.01E+08 | – | –
33 | ZYX_244 (PVSLANTQPR; listed as Homo sapiens) | – | 9.45E+08 | – | –
